{"source": "PubChem BioAssay AID1259276 | Sanger Institute, 2017", "aim": "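Kinase knock-downs that reduce colorectal cancer cell viability alone or with anchor drugs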 (primary screen)", "system": "human C2BBe1 colorectal cancer cells", "reagent": "siRNA pool against human genes", "conditions": "DMSO vehicle, or one anchor drug: BYL719 at 1 µM, cetuximab at 5 µg/ml, or trametinib at 10 nM; exposure length not stated", "measured": "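Viability after knock-down relative to non-targeting siRNA controls, averaged across replicates, given as ratio and control-derived robust z-score, with per-drug synergy scores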", "reading the numbers": "viability robust z-score, siRNA alone: higher = more viable cells after knock-down", "rule for the call": "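a siRNA pool tested without drug is essential if its viability robust z-score falls under -3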", "calls": "active = essential (siRNA alone); inactive = no change (siRNA alone)", "note": "This is an unselected part of 794 reagents. Over the whole deposit, 24 (3%) were called active. 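Calls come only from the siRNA-alone arm; drug synergy scores do not affect them.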 A number with no mark means an inactive call. Further read-outs or replicates are left out here. Not given: the amount of reagent, the time to read-out."}
{"target":"BUB1","PubChem SID":"SID152152440","viability robust z-score, siRNA alone":-0.79}
{"target":"MAP4K4","PubChem SID":"SID56478747","viability robust z-score, siRNA alone":0.472}
{"target":"PEAK1","PubChem SID":"SID152152075","viability robust z-score, siRNA alone":-2.8}
{"target":"KRAS","PubChem SID":"SID134310727","viability robust z-score, siRNA alone":-2.51}
{"target":"TEC","PubChem SID":"SID152148252","viability robust z-score, siRNA alone":0.472}
{"target":"PIM2","PubChem SID":"SID56479034","viability robust z-score, siRNA alone":0.472}
{"target":"CDK5R2","PubChem SID":"SID56479219","viability robust z-score, siRNA alone":0.472}
{"target":"IP6K2","PubChem SID":"SID56479106","viability robust z-score, siRNA alone":0.472}
{"target":"ULK2","PubChem SID":"SID56479062","viability robust z-score, siRNA alone":0.472}
{"target":"PFKP","PubChem SID":"SID56479236","viability robust z-score, siRNA alone":-1.89}
{"target":"CDKN1A","PubChem SID":"SID56478654","viability robust z-score, siRNA alone":0.472}
{"target":"PRKCSH","PubChem SID":"SID56479239","viability robust z-score, siRNA alone":0.472}
{"target":"CKS1B","PubChem SID":"SID56478807","viability robust z-score, siRNA alone":0.472}
{"target":"CSNK1E","PubChem SID":"SID56478659","viability robust z-score, siRNA alone":-1.27}
{"target":"GOLGA5","PubChem SID":"SID134315128","viability robust z-score, siRNA alone":0.472}
{"target":"NRBP2","PubChem SID":"SID56479019","viability robust z-score, siRNA alone":-1.1}
{"target":"PRKCH","PubChem SID":"SID56478829","viability robust z-score, siRNA alone":0.472}
{"target":"MAP3K13","PubChem SID":"SID56478694","viability robust z-score, siRNA alone":"-3.1 (active)"}
{"target":"RBM10","PubChem SID":"SID134313901","viability robust z-score, siRNA alone":0.472}
{"target":"RIPK4","PubChem SID":"SID135620968","viability robust z-score, siRNA alone":0.472}
{"target":"GSK3B","PubChem SID":"SID56478468","viability robust z-score, siRNA alone":0.472}
{"target":"MAPK8","PubChem SID":"SID135620691","viability robust z-score, siRNA alone":-0.28}
{"target":"EPHA7","PubChem SID":"SID152149990","viability robust z-score, siRNA alone":0.472}
{"target":"ITPK1","PubChem SID":"SID56479109","viability robust z-score, siRNA alone":0.472}
{"target":"PRKAG3","PubChem SID":"SID56479232","viability robust z-score, siRNA alone":-1.23}
{"target":"EFNB3","PubChem SID":"SID134315611","viability robust z-score, siRNA alone":0.472}
{"target":"OBSCN","PubChem SID":"SID56479016","viability robust z-score, siRNA alone":0.472}
{"target":"RIOK3","PubChem SID":"SID152150051","viability robust z-score, siRNA alone":0.472}
{"target":"TAOK3","PubChem SID":"SID152152167","viability robust z-score, siRNA alone":0.472}
{"target":"MARK2","PubChem SID":"SID152148068","viability robust z-score, siRNA alone":0.472}
{"target":"LMTK3","PubChem SID":"SID152150242","viability robust z-score, siRNA alone":-2.11}
{"target":"CDKN2C","PubChem SID":"SID56478606","viability robust z-score, siRNA alone":0.472}
{"target":"SNRK","PubChem SID":"SID152154333","viability robust z-score, siRNA alone":0.472}
{"target":"BMP2K","PubChem SID":"SID135620930","viability robust z-score, siRNA alone":-2.61}
{"target":"CDK7","PubChem SID":"SID152150057","viability robust z-score, siRNA alone":0.472}
{"target":"IRAK4","PubChem SID":"SID134309837","viability robust z-score, siRNA alone":0.472}

Reagents above with an active call (1):
{"target":"MAP3K13","PubChem SID":"SID56478694","viability robust z-score, siRNA alone":"-3.1 (active)"}
